Measured values as given in US20210261671A1.
Numbering of substitutions follows the chain as printed. No constants are given. Whether binding was seen depends on the method and setting. Some results given as binding are weak or reduced against the parent protein; the word gives no strength. Values belong to the binder of their own block, whether it stands above or below them.

The chains behind the UniProt entries cited, without tags or fusion partners. Where a name states a change or a piece, a line headed by the entry shows the natural chain unless it says otherwise.
UniProt P36888: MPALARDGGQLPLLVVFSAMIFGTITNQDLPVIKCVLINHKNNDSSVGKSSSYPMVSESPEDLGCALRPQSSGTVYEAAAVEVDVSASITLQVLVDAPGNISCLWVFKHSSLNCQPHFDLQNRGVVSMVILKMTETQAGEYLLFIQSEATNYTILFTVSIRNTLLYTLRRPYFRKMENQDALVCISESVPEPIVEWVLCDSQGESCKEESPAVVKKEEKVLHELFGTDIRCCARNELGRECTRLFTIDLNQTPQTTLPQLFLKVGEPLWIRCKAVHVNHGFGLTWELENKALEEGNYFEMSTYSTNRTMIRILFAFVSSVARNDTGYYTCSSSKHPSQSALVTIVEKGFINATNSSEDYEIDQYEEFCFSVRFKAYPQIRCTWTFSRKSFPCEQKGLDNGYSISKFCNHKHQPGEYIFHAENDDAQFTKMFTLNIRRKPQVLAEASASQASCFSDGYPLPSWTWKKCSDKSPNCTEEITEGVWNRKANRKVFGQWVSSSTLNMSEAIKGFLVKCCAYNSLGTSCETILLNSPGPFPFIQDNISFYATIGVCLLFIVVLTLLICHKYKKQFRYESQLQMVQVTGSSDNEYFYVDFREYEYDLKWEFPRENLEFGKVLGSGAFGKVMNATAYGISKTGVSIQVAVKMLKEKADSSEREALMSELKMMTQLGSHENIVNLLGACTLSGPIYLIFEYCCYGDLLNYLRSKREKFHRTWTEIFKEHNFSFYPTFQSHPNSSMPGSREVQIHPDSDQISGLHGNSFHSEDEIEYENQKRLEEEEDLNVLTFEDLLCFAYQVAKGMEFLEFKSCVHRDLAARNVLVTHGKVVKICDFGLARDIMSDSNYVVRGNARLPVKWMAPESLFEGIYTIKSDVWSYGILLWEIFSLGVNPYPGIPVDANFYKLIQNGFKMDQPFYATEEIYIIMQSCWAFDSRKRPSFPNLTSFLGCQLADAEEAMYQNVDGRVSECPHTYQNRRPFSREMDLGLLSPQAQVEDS

Biological target: human FLT3 protein (human) (UniProt P36888)
Experiment: colorimetric ELISA, periplasmic extract

binding: binds
B1: FLL45 (VHH)
VHH: QVQLQESGGGLVQAGGSLRLSCAASGGTFSSSAMGWFRQAPGKEREFVATITQNDVPTYYTHSVKGRFTISRDNAKNTMYLQMNSLKPEDTAVYYCAQRVAQASGWRTTIKDYGYWGQGTQVTVSS

binding: binds
B2: FLL160 (VHH)
VHH: QVQLQESGGGLVQAGDSLRLSCATSGRTFNLYRVGWFRQAPGKEREFVARITWSADITQYADSVKGRFTISRDNAKNTVYLQMNSLKPEDTAIYYCATTLRKSSGIYHVDDYDDWGQGTQVTVSS

binding: binds
B3: FLL173 (VHH)
VHH: B2 VHH with D16G, A61T, V109T, D114Y

binding: binds
B4: FLL107 (VHH)
VHH: QVQLQESGGGLVQAGGSLRLSCAASGRTFSSYAMGWFRQAPGKEREFVAAISWSGSNTYYADSVKGRFTISRDNAKNTVYLQMDSLKPEDTAVYYCAAGGSTRVVVTTTPVVKYWGQGTQVTVSS

binding: binds
B5: FLL141 (VHH)
VHH: B4 VHH with K43M, S56Y, N57S, N74D

binding: binds
B6: FLL34 (VHH)
VHH: B4 VHH with M34L, S56G, N74D

binding: binds
B7: FLL78 (VHH)
VHH: B4 VHH with L11W, N57S, Q82L

binding: binds
B8: FLL4 (VHH)
VHH: B4 VHH with G26E, A33T, I51M, S56G, N57S

binding: binds
B9: FLL61 (VHH)
VHH: B4 VHH with G26E, S56G, N57S, V111I

binding: binds
B10: FLL1 (VHH)
VHH: QVQLQESGGGLVQAGGSLRLSCAASGRTFSTLTVAWFRQAPGKEREFVVASIPSGSNTGYAESVKGRFTISRDIAKNTVYLQMNSLKPEDTAMYFCAARIYFGSSRGYDYWGQGTQVTVSS

binding: binds
B11: FLL26 (VHH)
VHH: B10 VHH with S30T, L32Y, V48L, S54T, G59A, D73G, I74N, F95Y, I100T

binding: binds
B12: FLL15 (VHH)
VHH: QVQLQESGGGLVQAGGSLSLSCAASEGTISHAAMGWFRQAPGKERQFVAYDTWTGGSTNYADSVKDRFTITGDHAKNTVYLQMNSLKPEDTGVYYCAVRGRYSASYTYTNPASYKYWGQGTQVTVSS

binding: binds
B13: FLL823 (VHH)
VHH: QVQLQESGGGVVQVGGSLRLSCAASGGTFGYYAVGWFRQAPGKEREFVAAVTWNGAYLYSDPVKGRFTISRDNAKNTVYLQMNSLKSEDTAVYYCGLDRWSAVVESTPSTRGQGTQVTVSS

binding: binds
B14: FLL76 (VHH)
VHH: QVQLQESGGGLVQAGGSLRLSCAASGGAFSSYVMGWFRQAPGKEREFVAAVISWSGRITDYADSVKGRFSISRDNAKSTVYLQMNNLKPEDTAVYYCAAKTGMYIDLRTSTFDYWGQGTQVTVSS

binding: binds
B15: FLL71 (VHH)
VHH: QVQLQESGGGLVQVGGSLMVSCAASGGTFSSYATGWFRQVPGKEREFIAGISRNSGRTYYAESVKGRFTISRDNAKNTVYLQMNTLKPDDTAVYYCAAARYFTRDAVYTSGDDYDYWGQGTQVTVSS

binding: binds
B16: FLL84 (VHH)
VHH: B15 VHH with V14A, N54S, S55G, R104T, D105S, A106V

binding: binds
B17: FLL8 (VHH)
VHH: B15 VHH with A106V

binding: binds
B18: FLL178 (VHH)
VHH: QVQLQESGGGLVQPGGSLRLSCAASGFTFSDYAMSWVRQAPGKGLEWVSGISSGGYKIGYTDSTKGRFTISRDNAKNTLYLQMNSLTAEDTAVYYCAKGTQWSWSLRDNTSRGQGTQVTVSS

binding: binds
B19: FLL27 (VHH)
VHH: B18 VHH with A23K, D31S, T87N, S105A, N109S

binding: binds
B20: FLL822 (VHH)
VHH: QVQLQESGGGSVQAGGSLRLSCTASGRTFTDYTMGWFRQAPGKEREFMLGISSNGYRRYYTGSMKDRFTISRDNVKKTVYLQMNDLKPEDTAVYYCAASEDHGAPRYDYWGQGTQVTVSS

binding: binds
B21: FLL190 (VHH)
VHH: QVQLQESGGGLVQAGGSLTLSCTASGSTFSINHFSWYRQAPGKQRELVAFISSDGVSIDVESVKGRFTISGDNDKNTAYLQMNGLKPEDTAVYYCYYRGFWGQGTQVTVSS

binding: binds
B22: FLL43 (VHH)
VHH: B21 VHH with A14P, S35A, V56R, I58T, F100S

binding: binds
B23: FLL177 (VHH)
VHH: QVQLQESGGGLVQTGGSLRLSCAASGSTFSRNTMGWFRQAPGKERVFVLGISWSGIRSYYLDSAKARFTISRDNAKNTVYLQMNSLRPEDTAVYYCAAQEGSSPGPYKYWGQGTQVTVSS

binding: binds
B24: FLL39 (VHH)
VHH: QVQLQESGGGLVQAGGSLRLSCAASGLTSSTYRMAWFRQAPGKEREFAAGISYSADSGGSTNYADSVKGRFTISRDNAKNTVYLQMSSLKPEDTAVYYCAAGRYSGTYNSPYSSSYVYWGQGTQVTVSS
